Each structure is given as a SMILES string. The list shows a part of the results. Repeats in this data set agree poorly, so a single value says little.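 The cells were human embryonic kidney cells carrying a Renilla luciferase gene, driven by the HSV-TK promoter, on a plasmid put in briefly by transfection. This is the first-round screen of about ten thousand compounds, looking for ones that raise reporter output.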

For the assay, the system named is HEK 293FT. Put plainly: log relative Renilla luciferase luminescence (reporter expression vs reference, reference not stated) (log (base not stated)); higher = higher recombinant reporter expression. The conditions noted are these: 10 µM; time after transfection 48 h. As to the method: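 HEK 293FT cells transiently transfected with pRL-TK (Renilla luciferase) were treated with compounds at 10 uM and luminescence was read about 42 h later. Values are log relative Renilla luminescence (log base and reference not stated). Single-pass screen; 2080 natural products library.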
Regarding `C=C1CC[C@@H]2[C@](C)(CCC[C@]2(C)C(=O)O)[C@H]1CC/C(C)=C/CO` [Isocupressic acid], the log was 0.102.

Consider `C/C(=C\CC[C@@H](C)[C@H]1CC[C@@]2(C)[C@@H]3CCC4C(C)(C)C(O)CC[C@]4(C)C3=CC[C@]12C)C(=O)O` (stereo partly drawn) [3-Hydroxylanost-9(11),24-dien-26-oic acid], for which the log is -0.267.

As for `COC(=O)C1=CO[C@@H](C)[C@H]2Cn3ccc4c5ccccc5nc-4c3C[C@H]12` [Serpentine], the log was found to be 0.154.

As for `COc1ccc([C@@]23Oc4cc(OC)cc(OC)c4[C@]2(O)[C@H](O)[C@H](C(=O)N(C)C)[C@H]3c2ccccc2)cc1` [Rocaglamide], the log is -1.61.

For `COc1cc(/C=C/COC(C)=O)cc(OC)c1O[C@@H]1O[C@H](COC(C)=O)[C@@H](OC(C)=O)[C@H](OC(C)=O)[C@H]1OC(C)=O` [Syringin pentaacetate], the log was -0.111.

Consider `COc1ccc(C(C)=O)c(O)c1` [Paeonol], for which the log was -0.276.

For `COC(=O)/C(C)=C/C=C/[C@@]1(C)OC(=O)[C@]23CC=C(C)CC[C@]2(OC(C)=O)[C@H]1CC3` [Methyl pseudolarate A], the log was -0.131.

Consider `CCCCCCCCC/C=C/CC/C=C/[C@@H](O)C(CO[C@H]1O[C@H](CO)[C@@H](O)[C@H](O)[C@H]1O)NC(=O)[C@H](O)CCCCCCCCCCCCCC` (stereo partly drawn) [Soyacerebroside I], for which the log was -0.0367.

Turning to `COc1cc(O)c(C(=O)/C=C/c2ccccc2)c(O)c1OC` [Pashanone], the log was -0.0362.

As to `COc1cc(/C=C/CO)cc(OC)c1O[C@@H]1O[C@H](CO)[C@@H](O)[C@H](O)[C@H]1O` [Syringin], the log was -0.259.

In the case of `COc1c(-c2ccc(OC(C)=O)c(OC(C)=O)c2)oc2cc(OC(C)=O)cc(OC(C)=O)c2c1=O` [3-O-Methylquercetin tetraacetate], the log was -0.14.

Take `CC(C)(O)[C@@H]1CC[C@@](C)([C@H]2CC[C@]3(C)[C@@H]2CC[C@@H]2[C@@]4(C)CCC(=O)C(C)(C)[C@@H]4CC[C@]23C)O1` [Cabraleone]: the log is -0.028.

Regarding `COc1cc2ccc(=O)oc2c(OC)c1OC` [6,7,8-Trimethoxycoumarin], the log was -0.0248.

On to `C=C1CC[C@H]2C(C)(C)CCC[C@]2(C)[C@H]1/C=C/C1=CCOC1=O` [Villosin], for which the log stood at 0.163.

In the case of `C[C@H](CC[C@H](O)[C@](C)(O)CO)[C@H]1CC[C@@]2(C)C3=CC[C@H]4C(C)(C)C(=O)CC[C@]4(C)C3=CC[C@]12C` [Ganodermanontriol], the log was -0.29.

`Cc1c2c(cc3occ(C=O)c13)C(=O)CC[C@@H]2C` [Viteralone]: the log is -0.119.

As for `Cc1cc(O)c2c(c1)C(=O)c1cccc(O)c1C2=O` [Chrysophanol], the log was 0.0737.

With `C/C(=C\CCC(C)C1CCC2(C)C3=CCC4C(C)(C)C(=O)CCC4(C)C3=CCC12C)C(=O)O` (stereo not drawn) [Tyromycic acid], the log worked out at 0.085.

Consider `C=C1C(=O)[C@]23[C@H](O)[C@H]1CC[C@H]2[C@@]12CO[C@@]3(O)[C@@H](O)[C@@H]1[C@](C)(COC(C)=O)CC[C@H]2O` [Xerophilusin G], for which the log was -0.028.

As for `COc1cc2oc(=O)ccc2cc1[C@@H]1OC(=O)[C@@]2(C)O[C@@H]12` [Micromelin], the log was 0.0396.

As for `COC(=O)[C@]12CC[C@]34CCCN5C[C@H](C(=O)C3)[C@@]1(c1ccccc1N2)[C@@H]54` [Methyl demethoxycarbonylchanofruticosinate], the log amounted to 0.162.

For `C=CC(C)(C)c1c(OC(C)=O)cc2oc3c(CC=C(C)C)c(OC(C)=O)c(OC(C)=O)cc3c(=O)c2c1O` [Cudraxanthone L triacetate], the log is -0.163.

For `C=C1C(=O)O[C@H]2C[C@H](C)C(/C=C/C(C)=O)=CC[C@H]12` [Xanthatin], the log was -0.276.

Take `COc1cc(-c2oc3c(O)c(OC)cc(OC)c3c(=O)c2OC)cc(OC)c1OC` [8-Hydroxy-3,5,7,3',4',5'-hexamethoxyflavone]: the log was -0.127.

Consider `CC(C)(O[C@@H]1O[C@H](CO)[C@@H](O)[C@H](O)[C@H]1O)[C@H](O)COc1c2occc2cc2ccc(=O)oc12` [Heraclenol 3'-O-beta-D-glucopyranoside], for which the log is 0.437.

Regarding `COC(=O)C1C(O)CCC2CN3CCc4c([nH]c5ccccc45)C3CC21` (stereo not drawn) [beta-Yohimbine], the log turned out to be 0.14.

For the compound `CC(C)[C@@]1(O)C[C@@]2(O)[C@@]3(C)C[C@]4(O)O[C@@]5([C@H](O)[C@@H](C)CC[C@]35O)[C@@]2(O)[C@@]41C` [Cinnzeylanol], the log was -0.0904.

Consider `O=c1ccc2ccc(O)cc2o1` [Umbelliferone], for which the log was -0.619.

The values above are taken from the supplement of paper PMC7024190.
